Laboratory results taken from patent publication US20250276082A1 (INNOLAKE BIOPHARMA HANGZHOU, published 2025).
Positions count from the first letter of the chain named. No constants are given. Whether binding was seen depends on the method and setting. Some binding calls cover weakened binding; strength is not graded here.

T1: B7H3-hFc (UniProt Q5ZPR3 29-466, limits assumed)
T1 construct: Construct limits, linker and Fc not described; also called B7H3-hFc protein; not shown: human Fc (hFc)
T1 sequence (looked up): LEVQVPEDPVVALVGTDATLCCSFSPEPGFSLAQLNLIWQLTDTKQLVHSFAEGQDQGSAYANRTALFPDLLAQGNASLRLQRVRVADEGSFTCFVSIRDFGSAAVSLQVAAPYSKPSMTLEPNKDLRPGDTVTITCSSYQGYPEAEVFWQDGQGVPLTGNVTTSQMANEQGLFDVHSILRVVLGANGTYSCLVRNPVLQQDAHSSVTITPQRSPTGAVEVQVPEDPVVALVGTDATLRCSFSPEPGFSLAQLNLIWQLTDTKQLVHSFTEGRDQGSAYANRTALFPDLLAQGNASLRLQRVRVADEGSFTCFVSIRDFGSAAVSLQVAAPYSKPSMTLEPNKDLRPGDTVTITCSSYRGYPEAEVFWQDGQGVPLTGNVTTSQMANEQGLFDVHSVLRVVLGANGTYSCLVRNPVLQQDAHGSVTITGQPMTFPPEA

B1: 7F5 (antibody, mouse IgG1, V domains shown)
VH: EVQLQQSGAELVRPGALVKLSCKTSGFNIKAYYIHWVKQRPEQGLEWIGWIDPENGNTFYDPKFQGKASITADTSSNTAYLQLSSLTSEDAAVYYCTRSSTRLRPFDYWGQGTTLTVSS
VL: DIVMTQAAFSNPVTLGTSASISCRSSKSLLHSNGITYLYWYLQKSGQSPQLLIYQMSNLASGVPDRFSSSGSGTDFTLRISRVEAEDVGVYYCAQNLELYTFGGGTKLEIK
notes: Murine hybridoma antibody purified by protein A; also called B7H3 hybridoma monoclonal antibody 7F5
B2: 9C8 (antibody, mouse IgG1, V domains shown)
VH: EVQLQQSGPELVKPGASVKISCKTSGYTFTEYTIHWVKQSHGKSLEWIGGINPNSGGTTYNLKFKGKATLTVDKSSSTVYMELRSLTSEDSAVYYCARKEGFFTTDYWGQGTTLTVSS
VL: QTVLTQSPAIMSASPGEKVTMTCSASSSLSYIHWYRQKSGTSPKRWIYDTSNLATGVPVRFSGSGSGTSYSLTISSMEAEDAATYYCQQWHYNPPTFGGGTKLEIK
notes: Murine hybridoma antibody; also called B7H3 hybridoma monoclonal antibody 9C8
B3: 5B6 (antibody, mouse IgG1, V domains shown)
VH: QVQLQQSGAELARPGASVKMSCKTSGYTFITYTIHWVKQRPGQGLEWIGYINPTSDYANFNQKFKDKATLTADKSSRTAYMQLSSLTSEDSAVYYCARWGTTVFQFYFDYWGQGTTLTVSS
VL: QIVLSQSPAILSASPGEKVTMTCRASQSLSYINWYQLKPGSSPKPWIYATSSLQSGVPARFSGSASGTSYSLTISRVEAEDAATYFCQHWSSDPPTIGGGTKLEIK
notes: Murine hybridoma antibody; also called B7H3 hybridoma monoclonal antibody 5B6
B4: 7C9 (antibody, mouse IgG1, V domains shown)
VH: EVQLQQSGTELVRPGALVKLSCKASALNIKDFYMHWVKQRPERGLEWIGWIDPDNGNTIYDPKFQGKASITADISSSTAYLQLSSLTSEDTAVYYCARSSTRQRPFDYWGQGTTLTVSS
VL: DIVMTQSHKVMSTSVGDRVSITCKASQDVRTGVAWYQQKPGQSPKLLIYSAFYRYTGVPDRFTVSGSGADFTFTITSVQAEDLAVYYCQQYYSIPWTFGGGTKLEIK
notes: Murine hybridoma antibody; also called B7H3 hybridoma monoclonal antibody 7C9
B5: 2A9 (antibody, mouse IgG2b, V domains shown)
VH: EVQLQQSGPELVKPGASVKISCKTSGYTFTEYIMHWVKQSRGKSLEWIGGINPNSGGTTYNEKFKGKATLTVDKSASTAYMELRSLTSEDSAIYYCARRMPYWYFDVWGAGTTVTVSS
VL: QIVLTQSPAIMSASPGEKVTMTCSASSSVSYIHWYRQKSGTSPKRWVYDTSKLASGVPARFSGSGSGTSYSLTISSMEAEDAATYYCQQWVSNPLTFGAGTKLELK
notes: Murine hybridoma antibody; also called B7H3 hybridoma monoclonal antibody 2A9
B6: 15A2 (antibody, mouse IgG1, V domains shown)
VH: QVQLQQSGPEVVKPGALVRISCKASGYTFTSYDINWVKQRPGQGLEWIGWIDPGDGSTKYNEKFKGKATLTADKSSSTAYMQFSSLTSENSAVYFCVRRGFDYWGQGTTLTVSS
VL: QILLTQSPAIMSASPGEKVTMTCRTSSSVSYLHWFQQKPGSSPKLWIHDTSNLASGFPARFSGSGSGTSYSLIISSMEAEDAATYYCHQRSSYPWTFGGGTKLEIK
notes: Murine hybridoma antibody; also called B7H3 hybridoma monoclonal antibody 15A2
B7: 7B7 (antibody, mouse IgG2b, V domains shown)
VH: EVKLVESGGGLVRPGGSLKLSCAASGFTFSSYAVSWVRQTPEKRLEWVASISGGGIYIYYPDSVKGRFTISRDNAKNNLYLQMNSLTPDDTALYYCARHGGAGYFDYWGQGTTLTVSS
VL: DSLMTQSPASLSASVGETVTITCRGSESVHSYLAWYQQKQGKSPQLLVYNAKTLQSGVPSRFSGSGSGTQFSLRINSLQPEDFGTYYCQQHYGSPPWTFGGGTILEIK
notes: Murine hybridoma antibody; also called B7H3 hybridoma monoclonal antibody 7B7
B8: 7E6 (antibody, mouse IgG1, V domains shown)
VH: QVQLQQSGPELVRPGVSVKISCKGSGYTFTDYAMHWVKQSHAKSLEWIGVINSYYGNTHYNQKFKGKATMTVDKSSSTAYMELARLTSEDSAIYYCARAGGYSYGSSYRPDRFAYWGQGTLVIVSA
VL: DIQMTQSPASQSASLGESVTITCLASQTIGTWLAWYQQKPGKSPQLLIYAATNLADGVPSRFSGSGSGTKFSFKISSLQAEDFVSYYCQQLYSTPYTFGGGTKLEIK
notes: Murine hybridoma antibody; also called B7H3 hybridoma monoclonal antibody 7E6
B9: 2E10 (antibody, mouse IgG2a, V domains shown)
VH: EVQLQQSGPELVKPGASVKISCKTSGYTFTEYTMHWVKQSHGKNLEWIGGINTDNGGTTYSQKFKDKATLTVDRSSSTAYMVLRSLTSEDSAVYYCARSFNNYGPAWFAYWGQGALVTVSA
VL: DIVMTQSHKFMSTSIGDRVSITCKASQDVRSAVAWYQQRPGQSPKLLIYWASTRHTGVPARFTGSGSGTDYTLTINNVQSEDLAGYFCQQYSSYFTFGGGTKLEKK
notes: Murine hybridoma antibody; also called B7H3 hybridoma monoclonal antibody 2E10
B10: 2F7 (antibody, mouse IgG2b, V domains shown)
VH: QVQLQQPGAELVKPGASVKLSCKASGYTFTSYYIYWLKQRPGQGLEWIGGIKPSNGDTNFNAKFMNKATLTVDKSSSTAYMQLSSLTSEDSAIYYCTRFFYGSPYDFDVWGAGTTVTVSS
VL: NIVMTQSPKSMSMAVGERVTLTCKASENVDTHVSWYQQKPEQSPTLLMYGTSNRFTGVPDRFTGSGSATDFTLTISSVQAEDLADYHCGQSYRYPYTFGGGTKLEIK
notes: Murine hybridoma antibody; also called B7H3 hybridoma monoclonal antibody 2F7
B11: 13A2 (antibody, mouse IgG2b, V domains shown)
VH: EVQLQQSGPELVKPGASVKISCKTSGYTFTEYVMHWVKQRHGQSLEWIGGINPNTGGTTYNQKFEGKATLTVDKSSSSAYMEFRSLTSEDSAVYYCARRMPFGISAMDYWGQGTSVTVSS
VL: B5 VL with Y35F, R36Q, V47I, Y48S, D49E, E78G, Q88H, V91I, N93Y, L95P
notes: Murine hybridoma antibody; also called B7H3 hybridoma monoclonal antibody 13A2
B12: 14B3 (antibody, mouse IgG1, V domains shown)
VH: QVQLQQSGPELVRPGVSVKISCKGSGYTFTDHAIHWVKQSHAKSLEWIGVINTYSGNTNFNQKLKGKATMTVDKSSSTAYMELARLTSEDSAIYYCARGAHSSGYPYWYFDVWGAGTTVTVSS
VL: QIVLSQSPAILSASAGEKVTMTCRASSSVSYMHWYQQKPGSSPKPWIYATSNLASGVPARFSGSGSGTSYSLTISRVEAEDAATYYCQQWSTNPFTFGSGTKLEMK
notes: Murine hybridoma antibody; also called B7H3 hybridoma monoclonal antibody 14B3

Molecular target: T1, B7H3-hFc
Test: ELISA, B7H3-hFc

Binder | binding
B1 | binds
B2 | binds
B3 | binds
B4 | binds
B5 | binds
B6 | binds
B7 | binds
B8 | binds
B9 | binds
B10 | binds
B11 | binds
B12 | binds
